Where a name gives a salt, the structure may show the parent alone. The source gives many values for each of these; only a part stands here.
Columns and labels:
[1] = Effect of sodium acetate buffer concentration on stability, pH 3.5, 60° C.; format: physicochemical
Protocol: (§1) The drug is monitored at a detection wavelength of 232 nm.
Tightly sealed glass vials containing the test solutions were placed in an oven at 40° C. or 60° C. All samples were stored in the dark. Aliquots were removed at designated time points for HPLC analysis and pH measurement.
In conjunction with HPLC analysis, pH was measured. The measurement was performed using the same samples as used for the HPLC analysis. The pH meter was calibrated using pH 4.00 and 7.00 buffer standards prior to each measurement.
Samples were incubated at 60° C. with scheduled testing performed at day 0, 2, 7, and 14. The various buffer concentrations were prepared by diluting the 50 mM buffer with water and re-examining the pH value to determine if the pH 3.5 was constant. Measurements of pH were performed after HPLC analysis of the samples.

[2] = Effect of additives on stability, pH 3.5, 60° C.; format: physicochemical; settings: 10 mM Sodium Acetate
Protocol: as §1
The pH value of the solutions was readjusted to pH 3.5, as required.
All samples were placed in 10 ml glass serum vials, stoppered with rubber closures with an inert coating (Daikyo Flurotec by WEST Pharmaceutical), and sealed with flip-top caps after sampling. Vials were placed at 60° C. after the weights were recorded.
Sampling occurred at the initial time point and on days 2, 7, and 14.
Vials were weighed, sampled, sealed, re-weighed, and replaced under the selected storage condition until testing at the subsequent time point.

[3] = Sodium Acetate 0 mM (un-buffered), Day 0
[4] = Sodium Acetate 0 mM (un-buffered), Day 2
[5] = Sodium Acetate 0 mM (un-buffered), Day 7
[6] = Sodium Acetate 0 mM (un-buffered), Day 14
[7] = Propylene glycol, 25% w/v, Day 0
[8] = Propylene glycol, 25% w/v, Day 2
[9] = Propylene glycol, 25% w/v, Day 7
[10] = Propylene glycol, 25% w/v, Day 14
[11] = Sodium metabisulfite, 0.5 mg/ml, Day 0
[12] = Sodium metabisulfite, 0.5 mg/ml, Day 2
[13] = Sodium metabisulfite, 0.5 mg/ml, Day 7
[14] = Sodium metabisulfite, 0.5 mg/ml, Day 14
[15] = α-Cyclodextran, 50 mg/ml, Day 0
[16] = α-Cyclodextran, 50 mg/ml, Day 2
[17] = α-Cyclodextran, 50 mg/ml, Day 7
[18] = α-Cyclodextran, 50 mg/ml, Day 14

## Cc1ccc(N(CC2=NCCN2)c2cccc(O)c2)cc1 [Phentolamine Mesylate, phentolamine mesylate]
[1]; [3]
  Phentolamine Concentration: 90 µg/mL
  Phentolamine Purity: 99 % peak area
[1]; [4]
  Phentolamine Concentration: 92 µg/mL
  Phentolamine Purity: 99 % peak area
[1]; [5]
  Phentolamine Concentration: 82 µg/mL
  Phentolamine Purity: 98 % peak area
[1]; [6]
  Phentolamine Concentration: 77 µg/mL
  Phentolamine Purity: 97 % peak area
[1]; Sodium Acetate 5 mM, Day 0
  Phentolamine Concentration: 99 µg/mL
  Phentolamine Purity: 99 % peak area
[1]; Sodium Acetate 5 mM, Day 2
  Phentolamine Concentration: 97 µg/mL
  Phentolamine Purity: 99 % peak area
[1]; Sodium Acetate 5 mM, Day 7
  Phentolamine Concentration: 94 µg/mL
  Phentolamine Purity: 98 % peak area
[1]; Sodium Acetate 5 mM, Day 14
  Phentolamine Concentration: 92 µg/mL
  Phentolamine Purity: 98 % peak area
[1]; Sodium Acetate 10 mM, Day 0
  Phentolamine Concentration: 100 µg/mL
  Phentolamine Purity: 99 % peak area
[1]; Sodium Acetate 10 mM, Day 2
  Phentolamine Concentration: 97 µg/mL
  Phentolamine Purity: 99 % peak area
[1]; Sodium Acetate 10 mM, Day 7
  Phentolamine Concentration: 96 µg/mL
  Phentolamine Purity: 98 % peak area
[1]; Sodium Acetate 10 mM, Day 14
  Phentolamine Concentration: 92 µg/mL
  Phentolamine Purity: 98 % peak area
[1]; Sodium Acetate 50 mM, Day 0
  Phentolamine Concentration: 103 µg/mL
  Phentolamine Purity: 98 % peak area
[1]; Sodium Acetate 50 mM, Day 2
  Phentolamine Concentration: 101 µg/mL
  Phentolamine Purity: 98 % peak area
[1]; Sodium Acetate 50 mM, Day 7
  Phentolamine Concentration: 99 µg/mL
  Phentolamine Purity: 98 % peak area
[1]; Sodium Acetate 50 mM, Day 14
  Phentolamine Concentration: 96 µg/mL
  Phentolamine Purity: 96 % peak area
[2]; EDTA, 0.7 mg/ml, Day 0
  Phentolamine Purity: 99 % Peak Area
[2]; EDTA, 0.7 mg/ml, Day 2
  Phentolamine Purity: 99 % Peak Area
[2]; EDTA, 0.7 mg/ml, Day 7
  Phentolamine Concentration: 103 µg/mL
  Phentolamine Purity: 99 % Peak Area
[2]; EDTA, 0.7 mg/ml, Day 14
  Phentolamine Concentration: 99 µg/mL
  Phentolamine Purity: 98 % Peak Area
[2]; Glycerol, 25% w/v, Day 0
  Phentolamine Concentration: 126 µg/mL
  Phentolamine Purity: 98 % Peak Area
[2]; Glycerol, 25% w/v, Day 2
  Phentolamine Concentration: 123 µg/mL
  Phentolamine Purity: 98 % Peak Area
[2]; Glycerol, 25% w/v, Day 7
  Phentolamine Concentration: 120 µg/mL
  Phentolamine Purity: 93 % Peak Area
[2]; Glycerol, 25% w/v, Day 14
  Phentolamine Concentration: 115 µg/mL
  Phentolamine Purity: 94 % Peak Area
[2]; NaCl, 50 mg/ml, Day 0
  Phentolamine Concentration: 94 µg/mL
  Phentolamine Purity: 94 % Peak Area
[2]; NaCl, 50 mg/ml, Day 2
  Phentolamine Concentration: 98 µg/mL
  Phentolamine Purity: 99 % Peak Area
[2]; NaCl, 50 mg/ml, Day 7
  Phentolamine Concentration: 80 µg/mL
  Phentolamine Purity: 89 % Peak Area
[2]; NaCl, 50 mg/ml, Day 14
  Phentolamine Concentration: 74 µg/mL
  Phentolamine Purity: 85 % Peak Area
[2]; Niacinamide, 50 mg/ml, Day 0
  Phentolamine Concentration: 90 µg/mL
  Phentolamine Purity: 99 % Peak Area
[2]; Niacinamide, 50 mg/ml, Day 2
  Phentolamine Concentration: 90 µg/mL
  Phentolamine Purity: 100 % Peak Area
[2]; Niacinamide, 50 mg/ml, Day 7
  Phentolamine Concentration: 78 µg/mL
  Phentolamine Purity: 93 % Peak Area
[2]; Niacinamide, 50 mg/ml, Day 14
  Phentolamine Concentration: 92 µg/mL
  Phentolamine Purity: 90 % Peak Area
[2]; No additive, Day 0
  Phentolamine Concentration: 90 µg/mL
  Phentolamine Purity: 99 % Peak Area
[2]; No additive, Day 2
  Phentolamine Concentration: 92 µg/mL
  Phentolamine Purity: 98 % Peak Area
[2]; No additive, Day 7
  Phentolamine Concentration: 82 µg/mL
  Phentolamine Purity: 98 % Peak Area
[2]; No additive, Day 14
  Phentolamine Concentration: 77 µg/mL
  Phentolamine Purity: 97 % Peak Area
[2]; [7]
  Phentolamine Concentration: 118 µg/mL
  Phentolamine Purity: 93 % Peak Area
[2]; [8]
  Phentolamine Concentration: 121 µg/mL
  Phentolamine Purity: 97 % Peak Area
[2]; [9]
  Phentolamine Concentration: 113 µg/mL
  Phentolamine Purity: 93 % Peak Area
[2]; [10]
  Phentolamine Concentration: 106 µg/mL
  Phentolamine Purity: 90 % Peak Area
[2]; [11]
  Phentolamine Concentration: 97 µg/mL
  Phentolamine Purity: 97 % Peak Area
[2]; [12]
  Phentolamine Concentration: 101 µg/mL
  Phentolamine Purity: 99 % Peak Area
[2]; [13]
  Phentolamine Concentration: 84 µg/mL
  Phentolamine Purity: 95 % Peak Area
[2]; [14]
  Phentolamine Concentration: 74 µg/mL
  Phentolamine Purity: 92 % Peak Area
[2]; d-Mannitol, 40 mg/ml, Day 0
  Phentolamine Concentration: 98 µg/mL
  Phentolamine Purity: 96 % Peak Area
[2]; d-Mannitol, 40 mg/ml, Day 2
  Phentolamine Concentration: 96 µg/mL
  Phentolamine Purity: 97 % Peak Area
[2]; d-Mannitol, 40 mg/ml, Day 7
  Phentolamine Concentration: 98 µg/mL
  Phentolamine Purity: 96 % Peak Area
[2]; d-Mannitol, 40 mg/ml, Day 14
  Phentolamine Concentration: 91 µg/mL
  Phentolamine Purity: 97 % Peak Area
[2]; [15]
  Phentolamine Concentration: 102 µg/mL
  Phentolamine Purity: 98 % Peak Area
[2]; [16]
  Phentolamine Concentration: 99 µg/mL
  Phentolamine Purity: 99 % Peak Area
[2]; [17]
  Phentolamine Concentration: 96 µg/mL
  Phentolamine Purity: 98 % Peak Area
[2]; [18]
  Phentolamine Concentration: 94 µg/mL
  Phentolamine Purity: 98 % Peak Area

— US20030236306A1, “Stabilized formulations of alpha adrenergic receptor antagonists and the uses thereof” (priority 2002, published 2003)
